Results from patent US12419871B2, “Biomolecules involved in Alzheimer's disease” (ELECTROPHORETICS LIMITED, priority 2015, dated 2025).

B1: Q13151 (protein, UniProt Q13151 1-305, looked up)
chain: MENSQLCKLFIGGLNVQTSESGLRGHFEAFGTLTDCVVVVNPQTKRSRCFGFVTYSNVEEADAAMAASPHAVDGNTVELKRAVSREDSARPGAHAKVKKLFVGGLKGDVAEGDLIEHFSQFGTVEKAEIIADKQSGKKRGFGFVYFQNHDAADKAAVVKFHPIQGHRVEVKKAVPKEDIYSGGGGGGSRSSRGGRGGRGRGGGRDQNGLSKGGGGGYNSYGGYGGGGGGGYNAYGGGGGGSSYGGSDYGNGFGGFGSYSQHQSSYGPMKSGGGGGGGGSSWGGRSNSGPYRGGYGGGGGYGGSSF
modifications: full-length
B2: Q9Y4L1 (protein, UniProt Q9Y4L1 1-999, looked up)
chain: MADKVRRQRPRRRVCWALVAVLLADLLALSDTLAVMSVDLGSESMKVAIVKPGVPMEIVLNKESRRKTPVIVTLKENERFFGDSAASMAIKNPKATLRYFQHLLGKQADNPHVALYQARFPEHELTFDPQRQTVHFQISSQLQFSPEEVLGMVLNYSRSLAEDFAEQPIKDAVITVPVFFNQAERRAVLQAARMAGLKVLQLINDNTATALSYGVFRRKDINTTAQNIMFYDMGSGSTVCTIVTYQMVKTKEAGMQPQLQIRGVGFDRTLGGLEMELRLRERLAGLFNEQRKGQRAKDVRENPRAMAKLLREANRLKTVLSANADHMAQIEGLMDDVDFKAKVTRVEFEELCADLFERVPGPVQQALQSAEMSLDEIEQVILVGGATRVPRVQEVLLKAVGKEELGKNINADEAAAMGAVYQAAALSKAFKVKPFVVRDAVVYPILVEFTREVEEEPGIHSLKHNKRVLFSRMGPYPQRKVITFNRYSHDFNFHINYGDLGFLGPEDLRVFGSQNLTTVKLKGVGDSFKKYPDYESKGIKAHFNLDESGVLSLDRVESVFETLVEDSAEEESTLTKLGNTISSLFGGGTTPDAKENGTDTVQEEEESPAEGSKDEPGEQVELKEEAEAPVEDGSQPPPPEPKGDATPEGEKATEKENGDKSEAQKPSEKAEAGPEGVAPAPEGEKKQKPARKRRMVEEIGVELVVLDLPDLPEDKLAQSVQKLQDLTLRDLEKQEREKAANSLEAFIFETQDKLYQPEYQEVSTEEQREEISGKLSAASTWLEDEGVGATTVMLKEKLAELRKLCQGLFFRVEERKKWPERLSALDNLLNHSSMFLKGARLIPEMDQIFTEVEMTTLEKVINETWAWKNATLAEQAKLPATEKPVLLSKDIEAKMMALDREVQYLLNKAKFTKPRPRPKDKNGTRAEPPLNASASDQGEKVIPPAGQTEDAEPISEPEKVETGSEPGDTEPLELGGPGAEPEQKEQSTGQKRPLKNDEL
modifications: full-length
B3: P22304 (protein, UniProt P22304 1-550, looked up)
chain: MPPPRTGRGLLWLGLVLSSVCVALGSETQANSTTDALNVLLIIVDDLRPSLGCYGDKLVRSPNIDQLASHSLLFQNAFAQQAVCAPSRVSFLTGRRPDTTRLYDFNSYWRVHAGNFSTIPQYFKENGYVTMSVGKVFHPGISSNHTDDSPYSWSFPPYHPSSEKYENTKTCRGPDGELHANLLCPVDVLDVPEGTLPDKQSTEQAIQLLEKMKTSASPFFLAVGYHKPHIPFRYPKEFQKLYPLENITLAPDPEVPDGLPPVAYNPWMDIRQREDVQALNISVPYGPIPVDFQRKIRQSYFASVSYLDTQVGRLLSALDDLQLANSTIIAFTSDHGWALGEHGEWAKYSNFDVATHVPLIFYVPGRTASLPEAGEKLFPYLDPFDSASQLMEPGRQSMDLVELVSLFPTLAGLAGLQVPPRCPVPSFHVELCREGKNLLKHFRFRDLEEDPYLPGNPRELIAYSQYPRPSDIPQWNSDKPSLKDIKIMGYSIRTIDYRYTVWVGFNPDEFLANFSDIHAGELYFVDSDPLQDHNMYNDSQGGDLFQLLMP
modifications: full-length
B4: A6NGN9 (protein, UniProt A6NGN9 1-336, looked up)
chain: MPPPAPGARLRLLAAAALAGLAVISRGLLSQSLEFNSPADNYTVCEGDNATLSCFIDEHVTRVAWLNRSNILYAGNDRWTSDPRVRLLINTPEEFSILITEVGLGDEGLYTCSFQTRHQPYTTQVYLIVHVPARIVNISSPVTVNEGGNVNLLCLAVGRPEPTVTWRQLRDGFTSEGEILEISDIQRGQAGEYECVTHNGVNSAPDSRRVLVTVNYPPTITDVTSARTALGRAALLRCEAMAVPPADFQWYKDDRLLSSGTAEGLKVQTERTRSMLLFANVSARHYGNYTCRAANRLGASSASMRLLRPGSLENSAPRPPGLLALLSALGWLWWRM
modifications: full-length

assay: TMTcalibrator quantification of regulated proteins in AD CSF versus control; design: species or system human; conditions: CSF of AD patient versus control; non-modified peptides of each protein summed for three control and three AD cases

Row | Molecule | Log2 AD/Control
1 | B1 | 0.90
2 | B2 | 0.86
3 | B3 | 1.30
4 | B4 | 1.24
